Reference: patent US20050272090, “Nucleic acid binding of multi-zinc finger transcription factors” (published 2005)
Results from cells or extracts need not show a direct contact. For some assays here: The comparison behind a weaker result is the experiment's own reference, which may not be listed here. For some assays here: Where a protein sequence is shown, tags need not be part of it. For some assays here: For at least one entry, the source does not settle the construct or the ends of the probe. For some assays here: Negatives hold for the conditions tested.

Key:
Test in all cases: EMSA
[1] = molecular target: SIP1 CZF3mut full size third His of CZF3 to Ser (Mus musculus) (UniProt Q9R0G7); conditions: protein in a lysate after overexpression; protein details: Myc6, COS1 cell extract; label: 32P
[2] = molecular target: SIP1 NZF4mut full size third His of NZF4 to Ser (Mus musculus) (UniProt Q9R0G7); conditions: protein in a lysate after overexpression; protein details: Myc6, COS1 cell extract; label: 32P
[3] = molecular target: SIP1 NZF3mut full size third His of NZF3 to Ser (Mus musculus) (UniProt Q9R0G7); conditions: pairwise mixes of mutants also negative; protein in a lysate after overexpression; protein details: Myc6, COS1 cell extract; label: 32P
[4] = molecular target: SIP1 CZF2mut full size third His of CZF2 to Ser (Mus musculus) (UniProt Q9R0G7); conditions: protein in a lysate after overexpression; protein details: Myc6, COS1 cell extract; label: 32P
[5] = molecular target: T1, SIP1NZF (N-terminal zinc finger cluster) (Mus musculus) (UniProt Q9R0G7); conditions: similar to SIP1CZF; p87 says absent; protein in a lysate after overexpression; protein details: N-terminal Myc6, COS1 cell extract; label: 32P; variant of Xbra-WT
T1 sequence (looked up): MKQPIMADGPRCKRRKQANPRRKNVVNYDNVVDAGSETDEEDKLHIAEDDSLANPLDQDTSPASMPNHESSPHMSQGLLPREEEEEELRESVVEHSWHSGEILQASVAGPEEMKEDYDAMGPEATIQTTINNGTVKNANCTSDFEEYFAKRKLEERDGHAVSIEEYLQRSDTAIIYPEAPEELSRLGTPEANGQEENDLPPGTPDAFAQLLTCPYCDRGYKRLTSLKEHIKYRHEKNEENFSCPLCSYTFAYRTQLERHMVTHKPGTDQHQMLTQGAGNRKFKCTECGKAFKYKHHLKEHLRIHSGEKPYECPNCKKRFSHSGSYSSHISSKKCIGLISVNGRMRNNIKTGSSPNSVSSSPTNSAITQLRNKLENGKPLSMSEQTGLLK

## ATCCAGGCCACCTAAAATATAGAATGATAAAGTGACCAGGTGTCAGTTCT (double strand) [Xbra-WT]
[1]
  binding result: no binding
[2]
  binding result: no binding
[3]
  binding result: no binding
[4]
  binding result: no binding

## ATCCAGGCCACCTAAAATATAGAATGATAAAGTGACCAGATGTCAGTTCT (double strand) [Xbra-D]
[5]
  binding result: binds more weakly
